Experimental data: US20070060573A1, “Acyltryptophanols” (priority 2005, published 2007)

Chains of the proteins cited; added tags and fusions are not shown. Residues count along the entry.
UniProt P23945, 18-695 limits assumed: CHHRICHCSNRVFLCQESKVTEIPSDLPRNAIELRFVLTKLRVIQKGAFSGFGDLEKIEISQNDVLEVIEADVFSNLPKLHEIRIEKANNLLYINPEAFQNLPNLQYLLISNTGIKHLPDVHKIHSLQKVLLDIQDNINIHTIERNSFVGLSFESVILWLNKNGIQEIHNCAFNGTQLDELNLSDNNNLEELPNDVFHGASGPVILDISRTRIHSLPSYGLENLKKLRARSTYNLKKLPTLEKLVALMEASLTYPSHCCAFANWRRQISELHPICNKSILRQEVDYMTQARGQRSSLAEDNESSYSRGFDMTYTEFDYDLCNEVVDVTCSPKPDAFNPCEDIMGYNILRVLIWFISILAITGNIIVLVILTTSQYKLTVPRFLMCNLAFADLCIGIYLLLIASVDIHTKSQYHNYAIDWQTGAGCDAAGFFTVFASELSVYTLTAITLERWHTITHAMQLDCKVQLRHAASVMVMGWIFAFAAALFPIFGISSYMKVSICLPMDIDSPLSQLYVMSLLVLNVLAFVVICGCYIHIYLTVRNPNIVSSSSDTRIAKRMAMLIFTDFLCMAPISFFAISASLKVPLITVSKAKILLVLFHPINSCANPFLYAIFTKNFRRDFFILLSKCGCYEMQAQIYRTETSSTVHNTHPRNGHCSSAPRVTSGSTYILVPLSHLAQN

Molecular target: human FSH receptor (Homo sapiens, UniProt P23945)
Test: HTRF assay for measuring cAMP in cells, FSH-antagonistic effect (in the presence of hFSH)
Settings: read-out: IC50 (FSH-antagonistic effect in the HTRF assay), hFSHR clone 16 cells (CHO cells stably transfected with the human FSH receptor), in the presence of 1e-9 mol/l hFSH, 37° C. for 2 h
Source text: […]

- IC50: 9 µM
Compound: COc1ccc(-c2cc(C(=O)N[C@@H](CO)Cc3c[nH]c4ccccc34)c3ccccc3n2)cc1OC

Structures were worked out from names or drawings and are uncertain.
